Read-outs that look alike come from different tables or passages of the source. These are yes or no findings as the source states them, for the method shown. In cells and extracts the contact can be indirect. A yes stands for co-enrichment or nearness to the bait. Other partners may have been found. For part of these data: No binding means not detected with the bait. For part of these data: Where a sequence is shown, tags or fusion partners need not be part of it. Each block holds one molecule with its values, some of them ahead of it.
Experiments:
CCDC93-GFP (human) [1] = biological target: CCDC93-GFP (human) (UniProt Q567U6); experiment: affinity purification with mass spectrometry; on-chip AP-MS: microfluidic columns of Dynabeads M-270 epoxy coupled to anti-GFP nanobody Lag16-2K/R (24-reactor chip; SMC1A and CCDC93 also on the 48-reactor chip), 4 µg whole-cell extract or 12,000-25,000 cells per pull-down, loaded at 15 °C, washes with 1 M NaCl buffer and PBS, on-bead digestion; control wild-type or not induced cells; label-free quantification
SMC1A-GFP (human) [2] = biological target: T1, SMC1A-GFP (human) (UniProt Q14683); experiment: as above
T1 sequence: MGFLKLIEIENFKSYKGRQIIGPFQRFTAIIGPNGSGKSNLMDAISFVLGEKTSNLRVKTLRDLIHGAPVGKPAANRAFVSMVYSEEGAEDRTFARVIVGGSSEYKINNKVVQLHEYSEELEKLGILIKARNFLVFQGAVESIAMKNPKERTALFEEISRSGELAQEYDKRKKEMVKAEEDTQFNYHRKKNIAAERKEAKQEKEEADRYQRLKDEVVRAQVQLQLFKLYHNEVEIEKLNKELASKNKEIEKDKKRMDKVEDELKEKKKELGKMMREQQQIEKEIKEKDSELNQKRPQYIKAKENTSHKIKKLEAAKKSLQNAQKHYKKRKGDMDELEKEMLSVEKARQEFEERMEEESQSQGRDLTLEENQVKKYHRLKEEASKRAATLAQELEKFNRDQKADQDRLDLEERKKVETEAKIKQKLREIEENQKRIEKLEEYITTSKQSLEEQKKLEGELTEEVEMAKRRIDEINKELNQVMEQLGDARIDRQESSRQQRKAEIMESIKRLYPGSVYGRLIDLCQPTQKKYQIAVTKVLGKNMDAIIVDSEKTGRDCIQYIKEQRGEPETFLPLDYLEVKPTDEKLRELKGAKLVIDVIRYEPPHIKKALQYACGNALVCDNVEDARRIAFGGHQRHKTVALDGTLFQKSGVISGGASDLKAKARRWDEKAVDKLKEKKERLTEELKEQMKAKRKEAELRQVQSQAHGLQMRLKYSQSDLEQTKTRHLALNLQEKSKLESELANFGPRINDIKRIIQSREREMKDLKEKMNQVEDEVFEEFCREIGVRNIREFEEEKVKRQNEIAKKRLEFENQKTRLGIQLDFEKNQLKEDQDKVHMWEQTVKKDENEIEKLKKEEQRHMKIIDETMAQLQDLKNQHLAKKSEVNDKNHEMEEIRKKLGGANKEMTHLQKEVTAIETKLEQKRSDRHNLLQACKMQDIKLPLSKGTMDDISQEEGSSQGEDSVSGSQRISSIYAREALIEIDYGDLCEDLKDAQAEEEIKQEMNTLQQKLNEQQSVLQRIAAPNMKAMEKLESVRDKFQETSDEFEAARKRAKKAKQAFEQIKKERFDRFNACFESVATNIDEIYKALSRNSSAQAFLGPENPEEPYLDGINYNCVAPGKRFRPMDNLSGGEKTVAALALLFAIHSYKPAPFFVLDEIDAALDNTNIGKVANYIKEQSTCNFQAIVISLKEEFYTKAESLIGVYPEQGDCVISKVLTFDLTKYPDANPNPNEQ

Sequences of proteins named here, by UniProt entry; tags and fusion partners are left off.
UniProt Q567U6: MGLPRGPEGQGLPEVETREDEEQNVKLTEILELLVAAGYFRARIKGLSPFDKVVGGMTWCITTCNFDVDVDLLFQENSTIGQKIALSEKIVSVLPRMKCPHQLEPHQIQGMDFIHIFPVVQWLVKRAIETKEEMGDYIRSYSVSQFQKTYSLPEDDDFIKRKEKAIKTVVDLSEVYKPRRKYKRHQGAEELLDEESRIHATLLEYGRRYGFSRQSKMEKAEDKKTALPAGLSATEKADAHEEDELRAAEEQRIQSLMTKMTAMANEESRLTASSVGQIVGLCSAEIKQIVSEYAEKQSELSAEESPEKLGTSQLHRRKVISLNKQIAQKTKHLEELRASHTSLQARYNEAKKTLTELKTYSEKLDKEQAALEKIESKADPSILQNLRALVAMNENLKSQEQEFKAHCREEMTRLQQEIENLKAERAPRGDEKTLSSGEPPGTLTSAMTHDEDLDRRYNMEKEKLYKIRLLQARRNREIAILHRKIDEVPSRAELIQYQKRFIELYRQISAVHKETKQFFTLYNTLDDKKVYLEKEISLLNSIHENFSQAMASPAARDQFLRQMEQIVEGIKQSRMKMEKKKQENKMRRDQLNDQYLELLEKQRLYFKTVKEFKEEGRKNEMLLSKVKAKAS
UniProt Q9UQE7: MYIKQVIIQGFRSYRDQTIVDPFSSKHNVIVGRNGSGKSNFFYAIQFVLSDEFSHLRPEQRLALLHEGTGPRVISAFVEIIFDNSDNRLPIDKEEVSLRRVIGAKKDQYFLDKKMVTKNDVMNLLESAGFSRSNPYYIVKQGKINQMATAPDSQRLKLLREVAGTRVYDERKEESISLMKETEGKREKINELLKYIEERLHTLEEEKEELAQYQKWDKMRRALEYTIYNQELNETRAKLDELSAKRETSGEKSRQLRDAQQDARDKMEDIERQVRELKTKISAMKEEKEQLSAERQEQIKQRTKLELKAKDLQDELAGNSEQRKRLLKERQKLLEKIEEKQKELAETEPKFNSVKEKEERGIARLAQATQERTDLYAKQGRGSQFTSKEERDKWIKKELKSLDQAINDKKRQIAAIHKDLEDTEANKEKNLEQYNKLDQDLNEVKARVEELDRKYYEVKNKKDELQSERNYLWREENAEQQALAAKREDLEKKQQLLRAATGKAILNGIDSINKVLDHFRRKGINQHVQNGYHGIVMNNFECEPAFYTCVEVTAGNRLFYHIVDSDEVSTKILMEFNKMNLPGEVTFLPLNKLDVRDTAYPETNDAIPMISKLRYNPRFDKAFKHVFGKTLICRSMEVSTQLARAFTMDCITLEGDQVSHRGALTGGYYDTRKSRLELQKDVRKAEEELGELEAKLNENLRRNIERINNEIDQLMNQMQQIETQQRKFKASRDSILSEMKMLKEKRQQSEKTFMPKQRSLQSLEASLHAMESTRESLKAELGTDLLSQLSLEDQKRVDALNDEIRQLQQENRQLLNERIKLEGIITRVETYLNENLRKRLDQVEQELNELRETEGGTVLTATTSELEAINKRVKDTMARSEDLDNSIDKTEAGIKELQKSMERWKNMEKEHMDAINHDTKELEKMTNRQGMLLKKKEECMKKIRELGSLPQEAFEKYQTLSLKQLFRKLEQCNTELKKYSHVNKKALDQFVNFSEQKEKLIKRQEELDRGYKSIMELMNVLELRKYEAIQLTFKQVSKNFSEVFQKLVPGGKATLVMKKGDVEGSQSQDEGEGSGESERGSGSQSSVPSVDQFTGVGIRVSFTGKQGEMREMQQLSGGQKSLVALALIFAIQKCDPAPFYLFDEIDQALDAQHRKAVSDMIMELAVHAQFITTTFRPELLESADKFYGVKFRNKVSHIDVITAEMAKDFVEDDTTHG
UniProt O60566: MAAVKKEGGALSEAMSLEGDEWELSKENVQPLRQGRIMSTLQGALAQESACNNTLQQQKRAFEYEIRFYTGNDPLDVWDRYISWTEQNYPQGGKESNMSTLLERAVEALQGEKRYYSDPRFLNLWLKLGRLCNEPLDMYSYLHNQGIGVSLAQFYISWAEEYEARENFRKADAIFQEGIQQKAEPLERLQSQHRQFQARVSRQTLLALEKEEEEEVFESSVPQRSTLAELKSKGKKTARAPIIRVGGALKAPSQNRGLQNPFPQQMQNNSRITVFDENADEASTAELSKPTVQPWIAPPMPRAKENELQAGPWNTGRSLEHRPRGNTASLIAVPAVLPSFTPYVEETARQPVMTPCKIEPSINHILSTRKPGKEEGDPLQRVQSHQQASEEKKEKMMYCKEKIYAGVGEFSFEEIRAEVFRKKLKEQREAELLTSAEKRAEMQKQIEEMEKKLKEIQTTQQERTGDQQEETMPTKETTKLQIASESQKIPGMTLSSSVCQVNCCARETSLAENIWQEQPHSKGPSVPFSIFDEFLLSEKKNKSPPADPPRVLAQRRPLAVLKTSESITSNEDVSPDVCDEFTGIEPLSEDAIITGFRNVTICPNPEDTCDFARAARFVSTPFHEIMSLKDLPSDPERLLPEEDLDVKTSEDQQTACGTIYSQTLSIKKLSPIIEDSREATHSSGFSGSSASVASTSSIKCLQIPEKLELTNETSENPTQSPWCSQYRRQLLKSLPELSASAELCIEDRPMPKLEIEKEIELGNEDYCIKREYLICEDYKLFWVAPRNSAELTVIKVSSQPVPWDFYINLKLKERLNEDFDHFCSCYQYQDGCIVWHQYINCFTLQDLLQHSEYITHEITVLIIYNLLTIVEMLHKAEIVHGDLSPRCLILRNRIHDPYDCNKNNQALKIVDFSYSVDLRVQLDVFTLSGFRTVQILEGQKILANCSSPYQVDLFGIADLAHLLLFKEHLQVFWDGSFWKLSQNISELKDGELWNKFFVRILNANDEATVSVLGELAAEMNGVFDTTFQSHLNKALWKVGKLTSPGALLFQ
UniProt O60826: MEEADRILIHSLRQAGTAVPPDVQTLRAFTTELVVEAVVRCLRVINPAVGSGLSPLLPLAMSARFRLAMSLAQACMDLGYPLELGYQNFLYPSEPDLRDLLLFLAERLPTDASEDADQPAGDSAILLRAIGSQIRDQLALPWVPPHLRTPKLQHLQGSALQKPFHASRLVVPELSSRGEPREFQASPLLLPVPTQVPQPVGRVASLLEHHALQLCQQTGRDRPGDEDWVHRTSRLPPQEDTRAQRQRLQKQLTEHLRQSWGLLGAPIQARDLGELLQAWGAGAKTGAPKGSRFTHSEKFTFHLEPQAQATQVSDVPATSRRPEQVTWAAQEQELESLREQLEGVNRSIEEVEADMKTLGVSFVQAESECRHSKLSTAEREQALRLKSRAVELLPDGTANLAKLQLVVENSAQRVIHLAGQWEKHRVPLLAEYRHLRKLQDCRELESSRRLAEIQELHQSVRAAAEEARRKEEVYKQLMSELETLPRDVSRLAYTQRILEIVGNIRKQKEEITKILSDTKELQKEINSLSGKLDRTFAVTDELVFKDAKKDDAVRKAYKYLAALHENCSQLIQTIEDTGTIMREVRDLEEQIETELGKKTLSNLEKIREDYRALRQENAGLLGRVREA
UniProt Q8N3U4: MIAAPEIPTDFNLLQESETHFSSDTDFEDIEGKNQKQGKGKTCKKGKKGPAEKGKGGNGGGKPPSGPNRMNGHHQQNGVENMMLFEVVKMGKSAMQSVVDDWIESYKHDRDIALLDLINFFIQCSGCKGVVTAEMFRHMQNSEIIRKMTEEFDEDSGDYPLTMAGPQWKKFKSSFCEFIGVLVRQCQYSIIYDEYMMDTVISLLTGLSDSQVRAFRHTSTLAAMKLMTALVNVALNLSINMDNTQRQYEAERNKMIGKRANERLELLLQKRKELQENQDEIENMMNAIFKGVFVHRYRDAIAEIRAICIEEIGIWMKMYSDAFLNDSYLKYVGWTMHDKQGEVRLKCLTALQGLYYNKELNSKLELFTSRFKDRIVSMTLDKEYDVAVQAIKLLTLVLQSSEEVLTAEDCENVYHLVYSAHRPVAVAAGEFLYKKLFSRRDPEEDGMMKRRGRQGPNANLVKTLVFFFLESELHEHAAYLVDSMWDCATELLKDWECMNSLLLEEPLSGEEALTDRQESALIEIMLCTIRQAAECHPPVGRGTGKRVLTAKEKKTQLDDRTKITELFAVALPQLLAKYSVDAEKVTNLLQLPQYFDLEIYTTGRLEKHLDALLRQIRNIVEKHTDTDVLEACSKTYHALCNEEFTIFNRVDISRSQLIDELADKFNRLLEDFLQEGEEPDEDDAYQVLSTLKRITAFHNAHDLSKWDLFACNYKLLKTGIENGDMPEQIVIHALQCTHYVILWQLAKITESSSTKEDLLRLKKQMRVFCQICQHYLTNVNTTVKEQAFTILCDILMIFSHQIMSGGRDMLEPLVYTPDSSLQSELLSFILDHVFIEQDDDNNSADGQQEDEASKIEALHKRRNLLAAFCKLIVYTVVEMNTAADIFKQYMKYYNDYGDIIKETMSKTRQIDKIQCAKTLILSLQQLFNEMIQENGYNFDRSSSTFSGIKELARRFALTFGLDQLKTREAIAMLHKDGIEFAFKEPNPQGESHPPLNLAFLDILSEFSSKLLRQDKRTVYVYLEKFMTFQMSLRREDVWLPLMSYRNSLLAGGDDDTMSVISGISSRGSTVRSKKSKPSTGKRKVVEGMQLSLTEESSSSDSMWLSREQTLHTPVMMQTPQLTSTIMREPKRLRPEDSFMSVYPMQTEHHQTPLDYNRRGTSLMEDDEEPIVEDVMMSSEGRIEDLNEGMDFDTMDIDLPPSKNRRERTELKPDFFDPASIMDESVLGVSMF
UniProt O43684: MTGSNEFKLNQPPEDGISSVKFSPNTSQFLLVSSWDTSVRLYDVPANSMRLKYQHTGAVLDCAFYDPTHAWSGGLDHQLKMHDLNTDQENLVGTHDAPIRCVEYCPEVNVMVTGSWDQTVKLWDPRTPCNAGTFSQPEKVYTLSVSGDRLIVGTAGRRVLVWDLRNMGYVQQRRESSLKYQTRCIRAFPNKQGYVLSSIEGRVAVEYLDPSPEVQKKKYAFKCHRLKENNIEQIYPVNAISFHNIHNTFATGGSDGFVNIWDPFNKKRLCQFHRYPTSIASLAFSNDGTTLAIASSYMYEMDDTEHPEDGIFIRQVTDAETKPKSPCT

SMC1A-GFP (human) [3] = biological target: T1, SMC1A-GFP (human); experiment: affinity purification with mass spectrometry; microcentrifuge tube-based GFP pull-down on GFP-Trap_A beads, 500 µg whole-cell extract, incubation 90 min at 4 °C in 300 mM NaCl buffer with ethidium bromide, washes with 1 M NaCl buffer; control wild-type HeLa Kyoto; label-free quantification
[4] = biological target: SMC3 (human (endogenous in HeLa)) (UniProt Q9UQE7); experiment: affinity purification with mass spectrometry; on-chip AP-MS on the 48-reactor chip: HeLa Kyoto extract incubated 1 h at 4 °C with anti-SMC3 antibody (Abcam Ab9263), protein A/G beads; control normal rabbit IgG
LAP-BUBR1 = LAP-BUBR1 (UniProt O60566); experiment: affinity purification with mass spectrometry; on-chip AP-MS: microfluidic columns of Dynabeads M-270 epoxy coupled to anti-GFP nanobody Lag16-2K/R (24-reactor chip; SMC1A and CCDC93 also on the 48-reactor chip), 4 µg whole-cell extract or 12,000-25,000 cells per pull-down, loaded at 15 °C, washes with 1 M NaCl buffer and PBS, on-bead digestion; control wild-type or not induced cells; label-free quantification
CCDC93-GFP (human) [5] = biological target: CCDC93-GFP (human) (UniProt Q567U6); experiment: as above; remark: listed apart in the source
SMC1A-GFP (human) [6] = biological target: T1, SMC1A-GFP (human); experiment: as above; remark: listed apart in the source

Molecule: CCDC22 (from UniProt O60826 1-627)
binding (CCDC93-GFP (human) [1]): binds

B2: STAG1 (protein, UniProt Q8WVM7 1-1258)
chain: MITSELPVLQDSTNETTAHSDAGSELEETEVKGKRKRGRPGRPPSTNKKPRKSPGEKSRIEAGIRGAGRGRANGHPQQNGEGEPVTLFEVVKLGKSAMQSVVDDWIESYKQDRDIALLDLINFFIQCSGCRGTVRIEMFRNMQNAEIIRKMTEEFDEDSGDYPLTMPGPQWKKFRSNFCEFIGVLIRQCQYSIIYDEYMMDTVISLLTGLSDSQVRAFRHTSTLAAMKLMTALVNVALNLSIHQDNTQRQYEAERNKMIGKRANERLELLLQKRKELQENQDEIENMMNSIFKGIFVHRYRDAIAEIRAICIEEIGVWMKMYSDAFLNDSYLKYVGWTLHDRQGEVRLKCLKALQSLYTNRELFPKLELFTNRFKDRIVSMTLDKEYDVAVEAIRLVTLILHGSEEALSNEDCENVYHLVYSAHRPVAVAAGEFLHKKLFSRHDPQAEEALAKRRGRNSPNGNLIRMLVLFFLESELHEHAAYLVDSLWESSQELLKDWECMTELLLEEPVQGEEAMSDRQESALIELMVCTIRQAAEAHPPVGRGTGKRVLTAKERKTQIDDRNKLTEHFIITLPMLLSKYSADAEKVANLLQIPQYFDLEIYSTGRMEKHLDALLKQIKFVVEKHVESDVLEACSKTYSILCSEEYTIQNRVDIARSQLIDEFVDRFNHSVEDLLQEGEEADDDDIYNVLSTLKRLTSFHNAHDLTKWDLFGNCYRLLKTGIEHGAMPEQIVVQALQCSHYSILWQLVKITDGSPSKEDLLVLRKTVKSFLAVCQQCLSNVNTPVKEQAFMLLCDLLMIFSHQLMTGGREGLQPLVFNPDTGLQSELLSFVMDHVFIDQDEENQSMEGDEEDEANKIEALHKRRNLLAAFSKLIIYDIVDMHAAADIFKHYMKYYNDYGDIIKETLSKTRQIDKIQCAKTLILSLQQLFNELVQEQGPNLDRTSAHVSGIKELARRFALTFGLDQIKTREAVATLHKDGIEFAFKYQNQKGQEYPPPNLAFLEVLSEFSSKLLRQDKKTVHSYLEKFLTEQMMERREDVWLPLISYRNSLVTGGEDDRMSVNSGSSSSKTSSVRNKKGRPPLHKKRVEDESLDNTWLNRTDTMIQTPGPLPAPQLTSTVLRENSRPMGDQIQEPESEHGSEPDFLHNPQMQISWLGQPKLEDLNRKDRTGMNYMKVRTGVRHAVRGLMEEDAEPIFEDVMMSSRSQLEDMNEEFEDTMVIDLPPSRNRRERAELRPDFFDSAAIIEDDSGFGMPMF
binding (SMC1A-GFP (human) [6]): binds | binding (SMC1A-GFP (human) [3]): binds | binding [4]: binds

More lines, now with the values ahead:

binding (SMC1A-GFP (human) [2]): binds | binding (SMC1A-GFP (human) [3]): binds | binding [4]: binds
Molecule: STAG2 (from UniProt Q8N3U4 1-1231)

binding (LAP-BUBR1): binds
Molecule: BUB3 (from UniProt O43684 1-328)

binding (CCDC93-GFP (human) [5]): no binding
B1: MYO1E (protein, UniProt Q12965 1-1108)
chain: MGSKGVYQYHWQSHNVKHSGVDDMVLLSKITENSIVENLKKRYMDDYIFTYIGSVLISVNPFKQMPYFGEKEIEMYQGAAQYENPPHIYALADNMYRNMIIDRENQCVIISGESGAGKTVAAKYIMSYISRVSGGGTKVQHVKDIILQSNPLLEAFGNAKTVRNNNSSRFGKYFEIQFSPGGEPDGGKISNFLLEKSRVVMRNPGERSFHIFYQLIEGASAEQKHSLGITSMDYYYYLSLSGSYKVDDIDDRREFQETLHAMNVIGIFAEEQTLVLQIVAGILHLGNISFKEVGNYAAVESEEFLAFPAYLLGINQDRLKEKLTSRQMDSKWGGKSESIHVTLNVEQACYTRDALAKALHARVFDFLVDSINKAMEKDHEEYNIGVLDIYGFEIFQKNGFEQFCINFVNEKLQQIFIELTLKAEQEEYVQEGIRWTPIEYFNNKIVCDLIENKVNPPGIMSILDDVCATMHAVGEGADQTLLQKLQMQIGSHEHFNSWNQGFIIHHYAGKVSYDMDGFCERNRDVLFMDLIELMQSSELPFIKSLFPENLQADKKGRPTTAGSKIKKQANDLVSTLMKCTPHYIRCIKPNETKKPRDWEESRVKHQVEYLGLKENIRVRRAGYAYRRIFQKFLQRYAILTKATWPSWQGEEKQGVLHLLQSVNMDSDQFQLGRSKVFIKAPESLFLLEEMRERKYDGYARVIQKSWRKFVARKKYVQMREEASDLLLNKKERRRNSINRNFIGDYIGMEEHPELQQFVGKREKIDFADTVTKYDRRFKGVKRDLLLTPKCLYLIGREKVKQGPDKGLVKEVLKRKIEIERILSVSLSTMQDDIFILHEQEYDSLLESVFKTEFLSLLAKRYEEKTQKQLPLKFSNTLELKLKKENWGPWSAGGSRQVQFHQGFGDLAVLKPSNKVLQVSIGPGLPKNSRPTRRNTTQNTGYSSGTQNANYPVRAAPPPPGYHQNGVIRNQYVPYPHAPGSQRSNQKSLYTSMARPPLPRQQSTSSDRVSQTPESLDFLKVPDQGAAGVRRQTTSRPPPAGGRPKPQPKPKPQVPQCKALYAYDAQDTDELSFNANDIIDIIKEDPSGWWTGRLRGKQGLFPNNYVTKI
